From the supplement of paper PMC12823440, “Inhibitors supercharge kinase turnover through native proteolytic circuits” (Nature, 2025)
Structures can show the parent of a compound that is named as a salt. This is one part of the list. The calls rarely recur for the same compound in another form.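 Kinases were expressed as nanoluciferase fusions in K562 cells and luminescence was read every 4 h between 2 and 18 h as percent of control, DMSO set to 100% and a positive control to 0%. A time point counts as decreased when the signal drops significantly (2 sigma). The hit call is the authors' own, does not follow from the count of time points alone, and its rule is not shown.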

By UniProt entry, the sequences of proteins in these tests, tags left out. Where a name states a change or a piece, a line headed by the entry shows the natural chain unless it says otherwise.
UniProt P50750, whole entry: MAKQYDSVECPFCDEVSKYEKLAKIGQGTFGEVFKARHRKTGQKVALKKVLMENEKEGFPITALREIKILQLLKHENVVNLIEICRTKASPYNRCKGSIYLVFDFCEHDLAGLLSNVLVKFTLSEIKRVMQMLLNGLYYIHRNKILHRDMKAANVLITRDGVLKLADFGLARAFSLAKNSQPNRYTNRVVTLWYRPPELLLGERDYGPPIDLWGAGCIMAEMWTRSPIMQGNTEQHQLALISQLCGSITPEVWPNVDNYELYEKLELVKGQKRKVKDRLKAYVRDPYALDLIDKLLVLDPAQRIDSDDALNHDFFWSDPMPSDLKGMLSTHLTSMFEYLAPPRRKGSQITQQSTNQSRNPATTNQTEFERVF
UniProt P07333, whole entry: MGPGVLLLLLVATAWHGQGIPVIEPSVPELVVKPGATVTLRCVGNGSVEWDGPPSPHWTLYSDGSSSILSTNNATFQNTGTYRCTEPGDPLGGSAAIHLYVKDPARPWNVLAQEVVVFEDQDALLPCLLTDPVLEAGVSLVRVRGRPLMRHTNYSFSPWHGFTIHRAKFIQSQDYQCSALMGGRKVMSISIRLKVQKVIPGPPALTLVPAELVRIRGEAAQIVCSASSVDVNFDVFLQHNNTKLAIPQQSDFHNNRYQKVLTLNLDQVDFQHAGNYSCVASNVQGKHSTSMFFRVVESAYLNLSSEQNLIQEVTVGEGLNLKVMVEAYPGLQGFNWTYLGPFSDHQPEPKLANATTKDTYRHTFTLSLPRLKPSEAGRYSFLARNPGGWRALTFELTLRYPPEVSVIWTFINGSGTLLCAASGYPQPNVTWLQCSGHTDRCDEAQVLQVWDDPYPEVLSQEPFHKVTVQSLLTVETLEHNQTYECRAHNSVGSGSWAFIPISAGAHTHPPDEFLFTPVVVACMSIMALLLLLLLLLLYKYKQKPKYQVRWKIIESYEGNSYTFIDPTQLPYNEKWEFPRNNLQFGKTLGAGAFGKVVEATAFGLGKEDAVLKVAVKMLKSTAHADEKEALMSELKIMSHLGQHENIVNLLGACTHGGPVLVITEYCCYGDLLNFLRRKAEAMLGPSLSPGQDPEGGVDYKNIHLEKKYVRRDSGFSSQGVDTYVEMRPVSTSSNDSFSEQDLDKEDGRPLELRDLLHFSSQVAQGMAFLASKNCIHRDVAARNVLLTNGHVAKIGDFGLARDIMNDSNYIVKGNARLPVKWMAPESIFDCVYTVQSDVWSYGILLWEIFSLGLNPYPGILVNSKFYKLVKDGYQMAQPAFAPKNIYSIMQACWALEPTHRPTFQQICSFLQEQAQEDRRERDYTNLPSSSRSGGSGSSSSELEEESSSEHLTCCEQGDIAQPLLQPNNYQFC
UniProt P48729: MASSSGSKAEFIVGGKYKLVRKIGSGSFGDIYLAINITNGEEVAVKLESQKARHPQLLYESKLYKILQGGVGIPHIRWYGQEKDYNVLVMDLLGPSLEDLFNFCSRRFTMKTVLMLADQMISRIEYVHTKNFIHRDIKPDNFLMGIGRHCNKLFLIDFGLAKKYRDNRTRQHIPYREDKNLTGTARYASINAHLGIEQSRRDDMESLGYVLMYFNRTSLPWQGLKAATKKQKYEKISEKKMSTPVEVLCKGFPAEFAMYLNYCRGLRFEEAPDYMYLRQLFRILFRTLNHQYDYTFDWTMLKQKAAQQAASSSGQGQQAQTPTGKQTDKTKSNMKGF
UniProt Q08345: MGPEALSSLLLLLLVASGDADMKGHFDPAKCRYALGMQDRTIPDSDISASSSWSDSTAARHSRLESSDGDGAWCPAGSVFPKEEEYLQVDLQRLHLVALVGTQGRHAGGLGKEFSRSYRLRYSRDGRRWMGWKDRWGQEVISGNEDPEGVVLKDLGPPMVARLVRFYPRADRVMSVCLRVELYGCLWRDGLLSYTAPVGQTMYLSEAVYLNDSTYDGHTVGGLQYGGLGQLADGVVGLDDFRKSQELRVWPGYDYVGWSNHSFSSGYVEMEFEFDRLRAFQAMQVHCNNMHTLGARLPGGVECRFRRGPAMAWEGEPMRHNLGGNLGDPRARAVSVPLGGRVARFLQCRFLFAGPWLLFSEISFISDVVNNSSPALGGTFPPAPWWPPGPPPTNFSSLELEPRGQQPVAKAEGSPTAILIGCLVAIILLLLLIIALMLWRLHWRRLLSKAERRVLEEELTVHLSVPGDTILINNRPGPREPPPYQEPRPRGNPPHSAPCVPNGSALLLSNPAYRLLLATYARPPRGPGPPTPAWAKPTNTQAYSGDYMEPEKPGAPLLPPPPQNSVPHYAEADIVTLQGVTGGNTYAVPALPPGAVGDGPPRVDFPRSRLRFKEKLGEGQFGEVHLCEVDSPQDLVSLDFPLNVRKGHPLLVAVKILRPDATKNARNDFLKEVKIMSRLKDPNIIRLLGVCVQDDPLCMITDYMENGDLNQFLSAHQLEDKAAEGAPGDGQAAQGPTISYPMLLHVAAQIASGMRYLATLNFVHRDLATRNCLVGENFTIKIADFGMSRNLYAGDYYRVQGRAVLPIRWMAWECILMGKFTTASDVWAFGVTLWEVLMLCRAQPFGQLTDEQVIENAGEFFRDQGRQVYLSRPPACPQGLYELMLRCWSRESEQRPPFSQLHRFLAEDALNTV
UniProt Q9Y463, whole entry, looked up: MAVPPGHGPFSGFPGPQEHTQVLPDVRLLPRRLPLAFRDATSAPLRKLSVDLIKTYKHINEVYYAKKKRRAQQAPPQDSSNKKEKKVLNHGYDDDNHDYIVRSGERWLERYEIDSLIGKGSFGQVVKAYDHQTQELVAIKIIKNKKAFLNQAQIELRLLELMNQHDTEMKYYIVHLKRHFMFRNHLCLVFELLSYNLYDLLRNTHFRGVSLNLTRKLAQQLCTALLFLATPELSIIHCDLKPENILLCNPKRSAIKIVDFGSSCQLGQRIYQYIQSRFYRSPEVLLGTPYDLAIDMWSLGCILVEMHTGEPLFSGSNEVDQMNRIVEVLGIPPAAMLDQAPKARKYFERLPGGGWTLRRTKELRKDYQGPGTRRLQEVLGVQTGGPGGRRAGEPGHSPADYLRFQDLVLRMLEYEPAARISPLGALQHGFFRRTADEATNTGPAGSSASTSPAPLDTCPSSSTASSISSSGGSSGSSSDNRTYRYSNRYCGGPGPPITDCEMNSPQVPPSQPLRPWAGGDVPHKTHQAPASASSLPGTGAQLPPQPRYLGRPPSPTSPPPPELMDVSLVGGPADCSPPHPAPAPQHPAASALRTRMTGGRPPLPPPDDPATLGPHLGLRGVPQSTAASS
UniProt P21860, whole entry: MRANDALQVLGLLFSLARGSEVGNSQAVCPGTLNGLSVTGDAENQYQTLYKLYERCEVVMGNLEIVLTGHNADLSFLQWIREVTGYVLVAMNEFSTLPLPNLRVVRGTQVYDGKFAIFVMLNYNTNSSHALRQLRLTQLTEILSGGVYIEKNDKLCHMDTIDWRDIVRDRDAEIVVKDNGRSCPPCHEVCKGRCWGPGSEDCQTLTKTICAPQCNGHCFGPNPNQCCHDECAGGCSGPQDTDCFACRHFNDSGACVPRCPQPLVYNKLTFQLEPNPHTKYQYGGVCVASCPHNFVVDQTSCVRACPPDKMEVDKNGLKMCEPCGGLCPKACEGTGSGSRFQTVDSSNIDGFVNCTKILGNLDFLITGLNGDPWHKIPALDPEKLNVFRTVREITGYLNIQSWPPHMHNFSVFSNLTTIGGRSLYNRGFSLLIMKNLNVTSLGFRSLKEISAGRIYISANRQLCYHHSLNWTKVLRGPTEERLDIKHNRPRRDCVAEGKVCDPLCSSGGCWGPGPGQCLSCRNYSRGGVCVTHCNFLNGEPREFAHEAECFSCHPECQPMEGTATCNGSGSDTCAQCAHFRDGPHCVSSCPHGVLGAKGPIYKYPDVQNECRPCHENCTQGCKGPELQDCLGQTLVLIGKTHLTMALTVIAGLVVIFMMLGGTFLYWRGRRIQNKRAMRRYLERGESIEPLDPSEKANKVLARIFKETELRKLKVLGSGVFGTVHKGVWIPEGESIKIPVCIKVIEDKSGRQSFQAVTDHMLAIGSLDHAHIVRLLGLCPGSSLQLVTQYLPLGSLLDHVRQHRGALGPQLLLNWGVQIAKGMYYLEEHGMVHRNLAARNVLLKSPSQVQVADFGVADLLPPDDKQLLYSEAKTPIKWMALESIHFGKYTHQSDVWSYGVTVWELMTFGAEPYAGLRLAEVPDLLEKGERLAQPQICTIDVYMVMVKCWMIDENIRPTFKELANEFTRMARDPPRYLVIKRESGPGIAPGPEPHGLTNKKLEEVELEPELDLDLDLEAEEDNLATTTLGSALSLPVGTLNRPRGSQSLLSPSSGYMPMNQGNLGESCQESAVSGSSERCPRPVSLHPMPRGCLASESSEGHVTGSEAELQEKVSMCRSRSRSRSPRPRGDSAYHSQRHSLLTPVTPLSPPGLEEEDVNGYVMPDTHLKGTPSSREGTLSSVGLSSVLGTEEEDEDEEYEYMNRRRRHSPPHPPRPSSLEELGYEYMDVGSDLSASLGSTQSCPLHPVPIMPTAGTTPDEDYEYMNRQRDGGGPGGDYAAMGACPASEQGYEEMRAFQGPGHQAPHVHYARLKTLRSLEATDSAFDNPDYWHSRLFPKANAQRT
UniProt Q15303, whole entry R711C: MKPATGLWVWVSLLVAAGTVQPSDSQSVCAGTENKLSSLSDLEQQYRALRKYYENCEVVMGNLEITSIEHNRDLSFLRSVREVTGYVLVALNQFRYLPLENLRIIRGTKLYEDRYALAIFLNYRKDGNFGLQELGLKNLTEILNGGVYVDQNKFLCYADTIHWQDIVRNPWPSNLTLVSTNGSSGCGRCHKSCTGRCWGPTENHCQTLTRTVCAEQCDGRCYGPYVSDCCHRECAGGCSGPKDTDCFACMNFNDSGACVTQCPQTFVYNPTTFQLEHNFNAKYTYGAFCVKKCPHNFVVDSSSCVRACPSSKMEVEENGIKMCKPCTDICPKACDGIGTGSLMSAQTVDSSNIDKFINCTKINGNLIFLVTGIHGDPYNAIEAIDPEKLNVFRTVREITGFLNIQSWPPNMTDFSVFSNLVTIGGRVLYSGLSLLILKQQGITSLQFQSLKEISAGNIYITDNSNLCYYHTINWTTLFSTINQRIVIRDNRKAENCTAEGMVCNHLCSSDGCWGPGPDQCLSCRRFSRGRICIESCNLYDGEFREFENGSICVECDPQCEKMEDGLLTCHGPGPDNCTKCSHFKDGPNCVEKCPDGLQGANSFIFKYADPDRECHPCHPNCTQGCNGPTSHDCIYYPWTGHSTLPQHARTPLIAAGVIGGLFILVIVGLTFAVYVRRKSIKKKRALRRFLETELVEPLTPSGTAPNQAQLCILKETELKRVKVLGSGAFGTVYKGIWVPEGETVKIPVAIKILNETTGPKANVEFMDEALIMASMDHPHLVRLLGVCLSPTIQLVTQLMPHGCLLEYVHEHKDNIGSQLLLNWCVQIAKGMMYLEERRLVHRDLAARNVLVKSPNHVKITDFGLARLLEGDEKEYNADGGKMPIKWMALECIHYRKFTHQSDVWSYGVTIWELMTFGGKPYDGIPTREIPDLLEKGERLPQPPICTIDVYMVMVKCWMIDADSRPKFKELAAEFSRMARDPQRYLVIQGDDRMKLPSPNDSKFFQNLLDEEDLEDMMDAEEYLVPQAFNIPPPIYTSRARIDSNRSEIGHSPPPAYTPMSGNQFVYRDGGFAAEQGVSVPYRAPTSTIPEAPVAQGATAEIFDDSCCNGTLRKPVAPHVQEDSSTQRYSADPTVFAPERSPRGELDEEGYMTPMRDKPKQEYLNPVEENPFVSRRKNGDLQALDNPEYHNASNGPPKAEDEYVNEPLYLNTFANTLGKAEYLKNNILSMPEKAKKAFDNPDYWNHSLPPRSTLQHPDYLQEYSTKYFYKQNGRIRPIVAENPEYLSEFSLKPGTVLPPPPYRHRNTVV
UniProt P48730: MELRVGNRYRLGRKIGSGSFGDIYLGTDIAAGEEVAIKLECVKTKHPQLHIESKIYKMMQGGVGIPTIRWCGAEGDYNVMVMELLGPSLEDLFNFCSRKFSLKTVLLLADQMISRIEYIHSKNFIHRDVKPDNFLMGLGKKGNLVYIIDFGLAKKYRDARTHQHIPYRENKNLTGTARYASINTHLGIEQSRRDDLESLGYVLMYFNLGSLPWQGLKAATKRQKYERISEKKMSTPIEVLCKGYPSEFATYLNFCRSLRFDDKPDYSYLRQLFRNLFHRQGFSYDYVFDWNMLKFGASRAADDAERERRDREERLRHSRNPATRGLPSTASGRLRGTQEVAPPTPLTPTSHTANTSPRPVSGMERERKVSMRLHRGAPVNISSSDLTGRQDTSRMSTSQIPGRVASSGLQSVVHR

How the values were obtained:
Test in all cases: kinase-Nluc reporter destabilization hit call (1 = scored as downregulated) (binary); higher = compound decreases kinase abundance
Conditions in all cases: K562; 2-18 h
CDK7 = CDK7 (UniProt P50613)
CDK9 = CDK9 (UniProt P50750)
CHEK2 = CHEK2 (UniProt O96017)
CSF1R = CSF1R (UniProt P07333)
CSK = CSK (UniProt P41240)
CSNK1A1 = CSNK1A1 (UniProt P48729)
DDR1 = DDR1 (UniProt Q08345)
DYRK1B = DYRK1B (UniProt Q9Y463)
DYRK2 = DYRK2 (UniProt Q92630)
EPHA2 = EPHA2 (UniProt P29317)
ERBB3 = ERBB3 (UniProt P21860)
[1] = molecular target: ERBB4_R711C (clone: ERBB4_mut) (UniProt Q15303)
CSNK1D = CSNK1D (UniProt P48730)
EGFR = EGFR (UniProt P00533)
EGFR_G719S = EGFR_G719S (UniProt P00533)
EGFR_G719S_T790M = EGFR_G719S_T790M (UniProt P00533)
EGFR_L718V = EGFR_L718V (UniProt P00533)
EGFR_L858R = EGFR_L858R (UniProt P00533)
EGFR_L861Q = EGFR_L861Q (UniProt P00533)
EGFR_T790M = EGFR_T790M (UniProt P00533)

Measured: kinase-Nluc reporter destabilization hit call

C[C@@H]1CCN(C(=O)CC#N)C[C@@H]1N(C)c1ncnc2[nH]ccc12 [Tofacitinib] (10 µM)
inactive: CDK7 = 0 | CDK9 = 0 | CHEK2 = 0 | CSF1R 0 | CSK 0 | CSNK1A1 = 0 | DDR1 = 0 | DYRK1B 0 | DYRK2 = 0 | EPHA2 = 0 | ERBB3 = 0 | [1] 0

CCc1cc2c(cc1N1CCC(N3CCOCC3)CC1)C(C)(C)c1[nH]c3cc(C#N)ccc3c1C2=O [Alectinib] (10 µM)
inactive: CDK7 = 0 | CDK9 = 0 | CHEK2 = 0 | CSF1R 0 | CSK 0 | CSNK1A1 = 0 | CSNK1D 0 | DDR1 = 0 | DYRK1B 0 | DYRK2 = 0 | EGFR 0 | EGFR_G719S 0 | EGFR_G719S_T790M 0 | EGFR_L718V 0 | EGFR_L858R 0 | EGFR_L861Q 0 | EGFR_T790M 0 | EPHA2 = 0 | ERBB3 = 0 | [1] 0

COCCNc1nc2ccc(C#CC3(O)CCCCC3)cc2n1-c1ccnc(N)n1 (10 µM)
inactive: CDK7 = 0 | CDK9 = 0 | CHEK2 = 0 | CSF1R 0 | CSK 0 | CSNK1A1 = 0 | CSNK1D 0 | DDR1 = 0 | DYRK1B 0 | DYRK2 = 0 | EGFR 0 | EGFR_G719S 0 | EGFR_G719S_T790M 0 | EGFR_L718V 0 | EGFR_L858R 0 | EGFR_L861Q 0 | EGFR_T790M 0 | EPHA2 = 0 | ERBB3 = 0 | [1] 0

Cc1[nH]c(/C=C2\C(=O)Nc3ccccc32)c(C)c1CCC(=O)O [(Z)-Orantinib] (10 µM)
inactive: CDK7 = 0 | CDK9 = 0 | CHEK2 = 0 | CSF1R 0 | CSK 0 | CSNK1A1 = 0 | DDR1 = 0 | DYRK1B 0 | DYRK2 = 0 | EPHA2 = 0 | ERBB3 = 0 | [1] 0

O=C(O)CCC(=O)Nc1ccc(Br)cn1 [Bikinin] (10 µM)
inactive: CDK7 = 0 | CDK9 = 0 | CHEK2 = 0 | CSF1R 0 | CSK 0 | CSNK1A1 = 0 | CSNK1D 0 | DDR1 = 0 | DYRK1B 0 | DYRK2 = 0 | EGFR 0 | EGFR_G719S 0 | EGFR_G719S_T790M 0 | EGFR_L718V 0 | EGFR_L858R 0 | EGFR_L861Q 0 | EGFR_T790M 0 | EPHA2 = 0 | ERBB3 = 0 | [1] 0

CCN1CCN(Cc2ccc(Nc3ncc(F)c(-c4cc(F)c5nc(C)n(C(C)C)c5c4)n3)nc2)CC1 [Abemaciclib (methanesulfonate)] (10 µM)
inactive: CDK7 = 0 | CDK9 = 0 | CHEK2 = 0 | CSF1R 0 | CSK 0 | CSNK1A1 = 0 | CSNK1D 0 | DDR1 = 0 | DYRK1B 0 | DYRK2 = 0 | EGFR 0 | EGFR_G719S 0 | EGFR_G719S_T790M 0 | EGFR_L718V 0 | EGFR_L858R 0 | EGFR_L861Q 0 | EGFR_T790M 0 | EPHA2 = 0 | ERBB3 = 0 | [1] 0

FC(F)(c1ccc2ncccc2c1)c1nnc2ccc(-c3ccncc3)nn12 (10 µM)
inactive: CDK7 = 0 | CDK9 = 0 | CHEK2 = 0 | CSF1R 0 | CSK 0 | CSNK1A1 = 0 | CSNK1D 0 | DDR1 = 0 | DYRK1B 0 | DYRK2 = 0 | EGFR 0 | EGFR_G719S 0 | EGFR_G719S_T790M 0 | EGFR_L718V 0 | EGFR_L858R 0 | EGFR_L861Q 0 | EGFR_T790M 0 | EPHA2 = 0 | ERBB3 = 0 | [1] 0

C=CC(=O)Nc1cccc(Nc2nc(Nc3ccc(N4CCN(C(C)=O)CC4)cc3OC)ncc2C(F)(F)F)c1 [Rociletinib] (10 µM)
inactive: CDK7 = 0 | CDK9 = 0 | CHEK2 = 0 | CSF1R 0 | CSK 0 | CSNK1A1 = 0 | CSNK1D 0 | DDR1 = 0 | DYRK1B 0 | DYRK2 = 0 | EGFR 0 | EGFR_G719S 0 | EGFR_G719S_T790M 0 | EGFR_L718V 0 | EGFR_L858R 0 | EGFR_L861Q 0 | EPHA2 = 0 | ERBB3 = 0 | [1] 0

COc1cc(Nc2ncc(F)c(Nc3ccc4c(n3)NC(=O)C(C)(C)O4)n2)cc(OC)c1OC [R406 (free base)] (10 µM)
inactive: CDK7 = 0 | CDK9 = 0 | CHEK2 = 0 | CSF1R 0 | CSK 0 | CSNK1A1 = 0 | CSNK1D 0 | DDR1 = 0 | DYRK1B 0 | DYRK2 = 0 | EPHA2 = 0 | ERBB3 = 0 | [1] 0

Cc1ccc(OCCSc2ncccn2)c(Br)c1 [ZLN024 (hydrochloride)] (10 µM)
inactive: CDK7 = 0 | CDK9 = 0 | CHEK2 = 0 | CSF1R 0 | CSK 0 | CSNK1A1 = 0 | CSNK1D 0 | DDR1 = 0 | DYRK1B 0 | DYRK2 = 0 | EGFR 0 | EGFR_G719S 0 | EGFR_G719S_T790M 0 | EGFR_L718V 0 | EGFR_L858R 0 | EGFR_L861Q 0 | EGFR_T790M 0 | EPHA2 = 0 | ERBB3 = 0 | [1] 0

Quoted from above (2 entries):
FC(F)(c1ccc2ncccc2c1)c1nnc2ccc(-c3ccncc3)nn12 (10 µM)
inactive: CDK7 = 0 | CDK9 = 0 | CHEK2 = 0 | CSF1R 0 | CSK 0 | CSNK1A1 = 0 | CSNK1D 0 | DDR1 = 0 | DYRK1B 0 | DYRK2 = 0 | EGFR 0 | EGFR_G719S 0 | EGFR_G719S_T790M 0 | EGFR_L718V 0 | EGFR_L858R 0 | EGFR_L861Q 0 | EGFR_T790M 0 | EPHA2 = 0 | ERBB3 = 0 | [1] 0

C=CC(=O)Nc1cccc(Nc2nc(Nc3ccc(N4CCN(C(C)=O)CC4)cc3OC)ncc2C(F)(F)F)c1 [Rociletinib] (10 µM)
inactive: CDK7 = 0 | CDK9 = 0 | CHEK2 = 0 | CSF1R 0 | CSK 0 | CSNK1A1 = 0 | CSNK1D 0 | DDR1 = 0 | DYRK1B 0 | DYRK2 = 0 | EGFR 0 | EGFR_G719S 0 | EGFR_G719S_T790M 0 | EGFR_L718V 0 | EGFR_L858R 0 | EGFR_L861Q 0 | EPHA2 = 0 | ERBB3 = 0 | [1] 0

Following part.

CC#CC(=O)Nc1ccc2ncnc(Nc3cccc(Br)c3)c2c1 (10 µM)
inactive: CDK7 = 0 | CDK9 = 0 | CHEK2 = 0 | CSF1R 0 | CSK 0 | CSNK1A1 = 0 | CSNK1D 0 | DDR1 = 0 | DYRK1B 0 | DYRK2 = 0 | EPHA2 = 0 | ERBB3 = 0 | [1] 0

CCc1c(C(=O)NNC(=O)C(O)c2cc(F)cc(F)c2)ccc(O)c1C (stereo not drawn) (10 µM)
inactive: CDK7 = 0 | CDK9 = 0 | CHEK2 = 0 | CSF1R 0 | CSK 0 | CSNK1A1 = 0 | CSNK1D 0 | DDR1 = 0 | DYRK1B 0 | DYRK2 = 0 | EGFR 0 | EGFR_G719S 0 | EGFR_G719S_T790M 0 | EGFR_L718V 0 | EGFR_L858R 0 | EGFR_L861Q 0 | EGFR_T790M 0 | EPHA2 = 0 | ERBB3 = 0 | [1] 0

C[C@@H]1CCN(C(=O)CC#N)C[C@@H]1N(C)c1ncnc2[nH]ccc12 [Tofacitinib (citrate)] (10 µM)
inactive: CDK7 = 0 | CDK9 = 0 | CHEK2 = 0 | CSF1R 0 | CSK 0 | CSNK1A1 = 0 | DDR1 = 0 | DYRK1B 0 | DYRK2 = 0 | EPHA2 = 0 | ERBB3 = 0 | [1] 0

CCOC(=O)N1CCN(C(=O)[C@H](Cc2cccc(C(=N)N)c2)NS(=O)(=O)c2c(C(C)C)cc(C(C)C)cc2C(C)C)CC1 (10 µM)
inactive: CDK7 = 0 | CDK9 = 0 | CHEK2 = 0 | CSF1R 0 | CSK 0 | CSNK1A1 = 0 | CSNK1D 0 | DDR1 = 0 | DYRK1B 0 | DYRK2 = 0 | EGFR 0 | EGFR_G719S 0 | EGFR_G719S_T790M 0 | EGFR_L718V 0 | EGFR_L858R 0 | EGFR_L861Q 0 | EGFR_T790M 0 | EPHA2 = 0 | ERBB3 = 0 | [1] 0

Nc1cc(C(F)(F)F)c(-c2cc(N3CCOCC3)nc(N3CCOCC3)n2)cn1 [Buparlisib (Hydrochloride)] (2.5 µM)
inactive: CDK7 = 0 | CDK9 = 0 | CHEK2 = 0 | CSF1R 0 | CSK 0 | CSNK1A1 = 0 | CSNK1D 0 | DDR1 = 0 | DYRK1B 0 | DYRK2 = 0 | EGFR 0 | EGFR_G719S 0 | EGFR_G719S_T790M 0 | EGFR_L718V 0 | EGFR_L858R 0 | EGFR_L861Q 0 | EGFR_T790M 0 | EPHA2 = 0 | ERBB3 = 0 | [1] 0

O=C1NC(=O)/C(=C\c2cccc(C(F)(F)F)c2)S1 (2.5 µM)
inactive: CDK7 = 0 | CDK9 = 0 | CHEK2 = 0 | CSF1R 0 | CSK 0 | CSNK1A1 = 0 | CSNK1D 0 | DDR1 = 0 | DYRK1B 0 | DYRK2 = 0 | EGFR 0 | EGFR_G719S 0 | EGFR_G719S_T790M 0 | EGFR_L718V 0 | EGFR_L858R 0 | EGFR_L861Q 0 | EGFR_T790M 0 | EPHA2 = 0 | ERBB3 = 0 | [1] 0

Cc1[nH]c(/C=C2\C(=O)Nc3ccccc32)c(C)c1CCC(=O)O [Orantinib] (10 µM)
inactive: CDK7 = 0 | CDK9 = 0 | CHEK2 = 0 | CSF1R 0 | CSK 0 | CSNK1A1 = 0 | DDR1 = 0 | DYRK1B 0 | DYRK2 = 0 | EPHA2 = 0 | ERBB3 = 0 | [1] 0
